Source: PubChem BioAssay AID1159584 (Peter MacCallum Cancer Centre, 2016)
This is one part, drawn at random, of about 18,000 reagents. Further read-outs or replicates are left out here. Not stated in the record: the amount of reagent, the time to read-out.

Test: 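Genes that CDH1-null MCF10A cells selectively depend on to survive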 (primary screen)
System: human MCF10A breast epithelial cells, parental and CDH1-null
Reagents: siRNA against human genes
Detection: 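ATP luminescence (CellTiter-Glo) viability per line relative to mean mock wells over all plates, and the ratio of CDH1-null to parental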
Reading the numbers: CDH1-null / parental viability ratio: higher = CDH1-null cells survive relatively better than parental

PRKAR2B — CDH1-null / parental viability ratio: 0.9
SST — CDH1-null / parental viability ratio: 1.13
ATXN2L — CDH1-null / parental viability ratio: 0.98
LYZL1 — CDH1-null / parental viability ratio: 1.07
AADACL2 — CDH1-null / parental viability ratio: 1.02
BTN3A3 — CDH1-null / parental viability ratio: 1.24
HIPK4 — CDH1-null / parental viability ratio: 0.98
MED29 — CDH1-null / parental viability ratio: 0.67
NDUFV3 — CDH1-null / parental viability ratio: 1.11
TMEM267 — CDH1-null / parental viability ratio: 1.06
CDHR2 — CDH1-null / parental viability ratio: 0.82
GAPT — CDH1-null / parental viability ratio: 1.13
MINPP1 — CDH1-null / parental viability ratio: 1.62
GGT1 — CDH1-null / parental viability ratio: 1.08
